# Test results reported in PMC4317502.
# Sequences of proteins named here, by UniProt entry; tags and fusion partners are left off. Residues count along the entry.
# UniProt P08670: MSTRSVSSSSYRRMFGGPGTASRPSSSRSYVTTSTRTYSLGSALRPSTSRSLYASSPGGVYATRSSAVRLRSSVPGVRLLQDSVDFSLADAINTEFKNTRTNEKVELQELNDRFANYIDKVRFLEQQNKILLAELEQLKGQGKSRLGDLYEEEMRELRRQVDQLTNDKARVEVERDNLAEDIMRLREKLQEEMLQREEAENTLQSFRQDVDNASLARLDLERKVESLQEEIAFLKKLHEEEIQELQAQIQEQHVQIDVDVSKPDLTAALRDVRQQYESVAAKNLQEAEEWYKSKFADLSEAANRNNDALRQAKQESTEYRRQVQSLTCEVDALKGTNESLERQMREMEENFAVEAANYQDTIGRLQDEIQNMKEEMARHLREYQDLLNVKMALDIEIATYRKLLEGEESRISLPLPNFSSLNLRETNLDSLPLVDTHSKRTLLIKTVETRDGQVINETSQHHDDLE
# UniProt P05556: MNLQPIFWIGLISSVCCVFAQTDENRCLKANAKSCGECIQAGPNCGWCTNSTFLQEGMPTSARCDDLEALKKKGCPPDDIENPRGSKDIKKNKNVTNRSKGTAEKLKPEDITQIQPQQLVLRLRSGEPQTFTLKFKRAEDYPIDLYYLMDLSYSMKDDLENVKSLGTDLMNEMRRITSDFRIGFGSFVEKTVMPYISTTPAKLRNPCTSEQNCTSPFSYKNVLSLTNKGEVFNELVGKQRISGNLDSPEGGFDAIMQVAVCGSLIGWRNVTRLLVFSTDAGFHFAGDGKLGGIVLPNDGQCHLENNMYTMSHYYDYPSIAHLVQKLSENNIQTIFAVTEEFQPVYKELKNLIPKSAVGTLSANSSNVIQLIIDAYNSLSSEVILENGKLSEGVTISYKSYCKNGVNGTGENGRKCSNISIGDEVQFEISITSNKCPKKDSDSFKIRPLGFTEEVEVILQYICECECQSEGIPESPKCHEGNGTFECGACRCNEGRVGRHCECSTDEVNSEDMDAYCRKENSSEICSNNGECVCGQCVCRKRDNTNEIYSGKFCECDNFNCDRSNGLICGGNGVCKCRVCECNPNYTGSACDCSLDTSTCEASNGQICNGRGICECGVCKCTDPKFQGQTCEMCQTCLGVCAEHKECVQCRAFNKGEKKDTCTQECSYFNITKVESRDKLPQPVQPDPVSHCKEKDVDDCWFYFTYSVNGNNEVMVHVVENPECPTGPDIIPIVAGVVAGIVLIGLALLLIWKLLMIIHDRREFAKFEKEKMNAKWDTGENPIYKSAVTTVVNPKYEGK
# UniProt Q05397: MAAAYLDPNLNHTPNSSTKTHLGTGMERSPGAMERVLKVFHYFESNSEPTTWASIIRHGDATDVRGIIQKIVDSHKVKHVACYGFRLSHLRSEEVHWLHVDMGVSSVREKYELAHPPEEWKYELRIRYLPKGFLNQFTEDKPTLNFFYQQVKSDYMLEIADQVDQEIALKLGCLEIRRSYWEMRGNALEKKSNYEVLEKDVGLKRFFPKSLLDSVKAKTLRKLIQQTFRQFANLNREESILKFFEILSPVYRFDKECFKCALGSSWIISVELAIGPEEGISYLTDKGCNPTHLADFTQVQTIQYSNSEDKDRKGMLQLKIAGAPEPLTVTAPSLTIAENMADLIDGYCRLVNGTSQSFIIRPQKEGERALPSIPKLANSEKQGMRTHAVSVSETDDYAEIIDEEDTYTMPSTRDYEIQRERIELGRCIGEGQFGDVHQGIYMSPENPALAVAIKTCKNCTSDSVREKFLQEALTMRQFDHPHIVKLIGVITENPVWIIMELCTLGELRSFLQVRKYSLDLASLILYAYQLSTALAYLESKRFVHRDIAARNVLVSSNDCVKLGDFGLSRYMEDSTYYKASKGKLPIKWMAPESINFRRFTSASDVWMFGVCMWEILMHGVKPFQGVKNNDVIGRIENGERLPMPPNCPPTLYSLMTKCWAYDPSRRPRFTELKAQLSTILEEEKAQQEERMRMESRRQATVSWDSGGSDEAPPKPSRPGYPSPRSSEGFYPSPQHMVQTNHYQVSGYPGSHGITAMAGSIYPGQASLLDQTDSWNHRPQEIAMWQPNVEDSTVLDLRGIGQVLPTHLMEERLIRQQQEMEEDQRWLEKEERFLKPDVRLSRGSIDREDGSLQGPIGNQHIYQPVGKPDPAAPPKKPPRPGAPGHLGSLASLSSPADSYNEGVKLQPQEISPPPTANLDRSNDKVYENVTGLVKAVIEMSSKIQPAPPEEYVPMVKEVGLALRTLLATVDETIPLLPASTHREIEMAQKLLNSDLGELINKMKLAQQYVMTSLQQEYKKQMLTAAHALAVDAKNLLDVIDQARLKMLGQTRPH
# UniProt O00468, residues 30-2068: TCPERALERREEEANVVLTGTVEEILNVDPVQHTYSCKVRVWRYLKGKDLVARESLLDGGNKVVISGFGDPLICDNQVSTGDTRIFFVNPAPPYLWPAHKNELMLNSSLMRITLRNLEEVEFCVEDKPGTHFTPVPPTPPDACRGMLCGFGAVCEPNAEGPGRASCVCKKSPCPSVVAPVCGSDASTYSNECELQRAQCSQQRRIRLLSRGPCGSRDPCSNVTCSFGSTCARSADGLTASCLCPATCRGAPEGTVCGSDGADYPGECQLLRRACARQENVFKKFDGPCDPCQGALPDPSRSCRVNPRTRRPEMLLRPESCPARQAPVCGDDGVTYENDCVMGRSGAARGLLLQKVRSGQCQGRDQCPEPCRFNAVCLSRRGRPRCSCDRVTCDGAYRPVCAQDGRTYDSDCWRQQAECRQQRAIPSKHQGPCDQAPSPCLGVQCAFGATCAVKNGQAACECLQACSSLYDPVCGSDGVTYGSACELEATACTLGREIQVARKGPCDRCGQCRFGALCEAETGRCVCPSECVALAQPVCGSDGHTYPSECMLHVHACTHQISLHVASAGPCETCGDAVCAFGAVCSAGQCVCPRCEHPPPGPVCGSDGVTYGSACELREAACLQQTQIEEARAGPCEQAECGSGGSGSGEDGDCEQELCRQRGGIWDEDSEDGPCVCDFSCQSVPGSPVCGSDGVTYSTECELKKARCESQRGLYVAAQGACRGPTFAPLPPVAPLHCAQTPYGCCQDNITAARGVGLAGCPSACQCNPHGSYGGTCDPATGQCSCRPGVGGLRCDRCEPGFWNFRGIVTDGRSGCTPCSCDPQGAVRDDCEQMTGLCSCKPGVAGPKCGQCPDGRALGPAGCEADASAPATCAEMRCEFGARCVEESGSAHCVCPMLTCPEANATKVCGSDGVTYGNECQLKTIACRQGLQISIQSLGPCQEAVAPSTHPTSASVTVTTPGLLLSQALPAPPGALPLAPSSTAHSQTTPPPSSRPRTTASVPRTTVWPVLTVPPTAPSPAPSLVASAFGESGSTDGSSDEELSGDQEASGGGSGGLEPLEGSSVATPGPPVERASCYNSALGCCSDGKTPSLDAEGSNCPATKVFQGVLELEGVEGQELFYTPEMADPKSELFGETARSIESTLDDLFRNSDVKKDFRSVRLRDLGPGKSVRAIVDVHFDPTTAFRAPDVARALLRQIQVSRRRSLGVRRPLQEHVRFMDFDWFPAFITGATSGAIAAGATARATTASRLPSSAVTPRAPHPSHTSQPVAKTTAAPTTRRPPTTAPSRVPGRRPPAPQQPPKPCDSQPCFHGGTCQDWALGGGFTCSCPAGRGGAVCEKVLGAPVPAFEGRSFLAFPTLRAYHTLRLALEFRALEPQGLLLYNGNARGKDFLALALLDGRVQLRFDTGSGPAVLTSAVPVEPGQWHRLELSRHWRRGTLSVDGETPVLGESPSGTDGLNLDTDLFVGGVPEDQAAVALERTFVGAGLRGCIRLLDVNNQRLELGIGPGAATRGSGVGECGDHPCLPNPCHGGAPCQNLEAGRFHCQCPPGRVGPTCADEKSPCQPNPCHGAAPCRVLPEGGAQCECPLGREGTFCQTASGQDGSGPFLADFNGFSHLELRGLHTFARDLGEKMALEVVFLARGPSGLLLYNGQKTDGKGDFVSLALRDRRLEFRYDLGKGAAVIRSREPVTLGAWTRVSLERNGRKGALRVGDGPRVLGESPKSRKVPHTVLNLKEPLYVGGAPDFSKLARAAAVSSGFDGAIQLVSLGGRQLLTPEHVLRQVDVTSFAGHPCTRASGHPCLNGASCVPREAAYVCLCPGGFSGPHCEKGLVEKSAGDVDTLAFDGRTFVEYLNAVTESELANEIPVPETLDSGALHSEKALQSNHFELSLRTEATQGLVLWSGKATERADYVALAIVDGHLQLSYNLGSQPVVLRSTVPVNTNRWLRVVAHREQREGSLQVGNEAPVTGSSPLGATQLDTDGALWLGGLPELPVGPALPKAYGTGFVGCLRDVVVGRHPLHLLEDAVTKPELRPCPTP
# UniProt Q14247: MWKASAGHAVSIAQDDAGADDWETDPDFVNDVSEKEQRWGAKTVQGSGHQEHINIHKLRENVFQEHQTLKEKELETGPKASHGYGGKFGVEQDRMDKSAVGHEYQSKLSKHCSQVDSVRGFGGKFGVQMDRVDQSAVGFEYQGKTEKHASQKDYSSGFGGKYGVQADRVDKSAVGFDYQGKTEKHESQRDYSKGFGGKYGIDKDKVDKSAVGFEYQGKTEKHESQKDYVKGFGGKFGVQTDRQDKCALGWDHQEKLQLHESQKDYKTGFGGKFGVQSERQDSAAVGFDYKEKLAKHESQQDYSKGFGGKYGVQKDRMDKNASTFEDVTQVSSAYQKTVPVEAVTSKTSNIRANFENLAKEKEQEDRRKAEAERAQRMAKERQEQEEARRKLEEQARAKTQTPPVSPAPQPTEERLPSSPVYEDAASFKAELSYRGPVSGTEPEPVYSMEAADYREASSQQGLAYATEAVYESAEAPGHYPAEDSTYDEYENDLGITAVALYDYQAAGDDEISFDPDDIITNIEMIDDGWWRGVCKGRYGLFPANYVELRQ
# Results are given in words; binding and its absence hold for the method and conditions named. In cells and extracts the contact can be indirect. Some entries that bind do so weakly or less than the wild type.
# Key:
# [1] = target: vimentin (human (endogenous in Hep3B, MIHA)) (UniProt P08670); test: co-IP; endogenous proteins in Hep3B lysate; IP with an antibody against vimentin, blot for Agrin
# [2] = target: vimentin (human (endogenous in Hep3B, MIHA)) (UniProt P08670); test: condition: only in MIHA cells (low endogenous Agrin); co-IP; endogenous proteins in MIHA lysate (non-tumorigenic liver cells with low endogenous Agrin); IP with an antibody against vimentin, blot for Agrin
# [3] = target: integrin β1 (human (endogenous in MHCC-LM3)) (UniProt P05556); test: co-IP; endogenous proteins in MHCC-LM3 lysate (20 mM Tris-HCl pH 7.5, 150 mM NaCl, 1% Triton X-100); 5 ug antibody with protein A or protein G Sepharose, 4 h at 4 °C; western blot; control cells and cells depleted of Agrin, Lrp4 or MuSK, or treated with 20 ug/ml recombinant Agrin for 12 h
# [4] = target: activated (pY397) focal adhesion kinase (human (endogenous in MHCC-LM3)) (UniProt Q05397); test: co-IP; pFAK and cortactin in control and Agrin-depleted cells; cell line and bait not told in the text (Supplementary Fig. 9b)
Substance,binding [1],binding [2],binding [3],binding [4]
Agrin (from UniProt O00468 30-2068),binds,no binding,binds,
cortactin (from UniProt Q14247 1-550),,,,binds
